Library compounds against nucleic acid targets

Calls as published in the ROBIN set (doi:10.1002/anie.202211358).

Targets (5′ to 3′):
SAM-II: SAM-II riboswitch RNA pseudoknot, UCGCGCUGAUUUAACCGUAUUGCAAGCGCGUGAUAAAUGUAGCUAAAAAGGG. Hit rate about 1% of about 21,000 compounds.
TPP: TPP riboswitch RNA three-way junction, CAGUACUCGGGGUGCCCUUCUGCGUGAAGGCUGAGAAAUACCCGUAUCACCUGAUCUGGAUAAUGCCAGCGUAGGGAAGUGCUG. Hit rate about 0.7% of about 24,000 compounds.
PreQ1: PreQ1 riboswitch RNA pseudoknot, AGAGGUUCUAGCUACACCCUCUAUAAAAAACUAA. From B. subtilis. Hit rate about 0.7% of about 24,000 compounds.

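Compounds were printed on reactive glass slides in duplicate spots, a dye-labelled oligonucleotide was laid over them, and the fluorescence left after washing was read. The data file lists only calls. An earlier report of the laboratory on the PreQ1, TPP and SAM-II riboswitches (doi:10.1038/s41467-019-09493-3) used 1 µM RNA for 2 h and required a mean Z-score above 3 (spot signal-to-noise against the whole library), a score well above that on a control array, and duplicate spots agreeing (coefficient of variation under 100); it then also set aside compounds that hit other targets, which this list keeps. The cut-offs behind this list may differ. These are primary screening calls, not affinities; a compound without a hit may have attached poorly or may still bind in solution.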
Key: hit = hit, none = tested without a hit.
Compounds were drawn at random from those tested, without regard to their results.
A dash means that no call is listed here.

| SMILES | SAM-II | TPP | PreQ1 |
|---|---|---|---|
| `CCCCC(=O)O[C@]1(C(=O)CO)[C@@H](C)C[C@H]2[C@@H]3CCC4=CC(=O)C=C[C@]4(C)[C@@]3(F)[C@@H](O)C[C@@]21C` | none | none | none |
| `CCOc1cccc(CNCCNC(=O)c2nonc2N)c1` | none | none | none |
| `O=C(NCCO)C(=Cc1cccc([N+](=O)[O-])c1)NC(=O)c1cccs1` | none | none | none |
| `CC(CCc1ccccc1)NCc1ccc(C(=O)O)s1` (configuration not stated) | - | none | none |
| `O=C(Nc1cccc2ccccc12)c1cccc(NCc2ccc3c(c2)OCO3)c1` | none | none | none |
| `Nc1ccc(S(=O)(=O)N2CCCCC2c2cccnc2)cc1` (configuration not stated) | - | none | none |
| `S=C1SCN(CCc2ccccc2)CN1CCc1ccccc1` | none | none | none |
| `Cc1nccn1CCCN1C(=O)NC2(CCNCC2)C1=O` | none | none | none |
| `COc1ccc(-c2cc3c(C)nc(N)nc3n(C3CCC(OCCO)CC3)c2=O)cn1` (configuration not stated) | none | none | none |
| `CCCCC(CC)CN1CC(=O)C(c2nc3ccccc3[nH]2)=C1N` (configuration not stated) | - | none | none |
| `CCN1c2ccccc2C2=C(C(c3cccc(Cl)c3)C(C#N)=C(N)O2)S1(=O)=O` (configuration not stated) | - | none | none |
| `CCC(C(=O)N(CCO)Cc1nccs1)N1Cc2ccccc2C1=O` (configuration not stated) | none | none | none |
| `CNC(=O)[C@@H]1C[C@H](N)CN1S(=O)(=O)CCc1ccncc1` | none | none | none |
| `O=C(NC(Nc1cccc([N+](=O)[O-])c1)C(Cl)(Cl)Cl)c1cccc(I)c1` (configuration not stated) | none | none | none |
| `NC(=O)C1=C(Nc2ccc(Cl)cc2)c2ccccc2S1(=O)=O` | - | none | none |
| `Cc1ccc(S(=O)(=O)Nc2ccccc2CNc2ccccc2)cc1` | none | none | none |
| `CCCc1nc2ccccc2n1CC(O)COc1ccc(Cl)cc1` (configuration not stated) | none | none | none |
| `CN(C)[C@@H]1C[C@@H](CO)N(C(=O)CSCCN2CCCC2)C1` | none | none | none |
| `CCOC(=O)c1sc2nc(CC(=O)OC)nc(Nc3ccccc3OCC)c2c1C` | none | none | none |
| `OC(CN1CCN(Cc2ccccc2)CC1)c1ccc2cc[nH]c2c1` (configuration not stated) | none | none | none |
| `CCc1ccc(CN(C)c2nc(N)ncc2C)nc1` | none | none | none |
| `c1ccc2c(c1)[nH]c1c3ccccc3sc21` | none | none | none |
| `COc1cccc2c1C(=O)c1c(O)c3c(c(O)c1C2=O)C[C@@](O)(C(=O)CO)C[C@@H]3O[C@H]1C[C@H](N)[C@H](O[C@H]2CCCCO2)[C@H](C)O1` | none | none | none |
| `Cc1cc(Br)ccc1NC1OC(=O)c2ccccc21` (configuration not stated) | none | none | none |
| `COc1ccc(Cl)cc1NC(=O)C(=O)NCCO` | none | none | none |
| `Cc1ccc2cc(-c3noc(C)n3)c(NCCc3ccc(Cl)cc3)nc2c1` | - | none | none |
| `Oc1cc(CNCCCN2Cc3ccccc3C2)nc2c(F)cccc12` | none | none | none |
| `COc1ccc(CCNCc2ccc(-c3ccc(F)cc3)o2)cc1OC` | - | none | none |
| `c1ccc(C2CCCN(CCNC3CCSCC3)C2)cc1` (configuration not stated) | none | none | none |
| `COc1cc(-c2nc(CC(N)=O)nn2CCO)nc2ccccc12` | none | none | none |
| `Cc1ncc2c(c1CNC(=O)c1cccc(-n3cccn3)c1)CCNC2` | none | none | none |
| `CCCc1nc2nc(C)c(N)c(O)n2n1` | none | none | none |
| `Nc1c(C(=O)c2ccccc2)sc2nc3c(cc12)CCCCC3` | none | none | none |
| `Cc1ccc(S(=O)(=O)N2CCN(CC3(O)CCCNC3)CC2)cc1` (configuration not stated) | none | none | none |
| `CCC(C)Nc1nc(SCC(=O)OC)nc(N(C)C)n1` (configuration not stated) | none | none | none |
| `O=C(NCc1ccc(Cl)cc1)c1nn(-c2ccccc2)nc1CO` | - | none | none |
| `COc1ccc2c(CNCCc3ccccc3OC)c(C(=O)O)n(C)c2c1` | - | none | none |
| `Cc1ccc(C(C)C)cc1NC(=O)Nc1ccc([N+](=O)[O-])cc1` | none | none | none |
| `O=c1[nH]c(=O)n([C@H]2C[C@@H](O)[C@@H](CO)O2)cc1C=CBr` | none | none | none |
| `Cc1ccc(-c2ccc3c(ccc4sc5c(c43)NC[C@@H](C)NC5=O)n2)cn1` | none | none | none |
| `COc1ccc(C2C(C#N)=C(N)Oc3[nH]nc(C(C)C)c32)c(OC)c1OC` (configuration not stated) | none | none | none |
| `CCc1csc(CNC2CCSC2)n1` (configuration not stated) | none | none | none |

3 of the entries, repeated:

| SMILES | SAM-II | TPP | PreQ1 |
|---|---|---|---|
| `Cc1ccc(-c2ccc3c(ccc4sc5c(c43)NC[C@@H](C)NC5=O)n2)cn1` | none | none | none |
| `CN(C)[C@@H]1C[C@@H](CO)N(C(=O)CSCCN2CCCC2)C1` | none | none | none |
| `O=C(NC(Nc1cccc([N+](=O)[O-])c1)C(Cl)(Cl)Cl)c1cccc(I)c1` (configuration not stated) | none | none | none |